Assay results from article PMC7142020.

Assays:
HES5wt-FLAG (human) = molecular target: T1, HES5wt-FLAG (human) (UniProt Q5TA89); assay: co-IP; HEK293T cells transiently co-transfected with HES5wt-FLAG or HES5mut-FLAG together with AKT; anti-FLAG immunoprecipitation; western blot with anti-pAKT(Ser473), anti-AKT or anti-HES5
T1 sequence: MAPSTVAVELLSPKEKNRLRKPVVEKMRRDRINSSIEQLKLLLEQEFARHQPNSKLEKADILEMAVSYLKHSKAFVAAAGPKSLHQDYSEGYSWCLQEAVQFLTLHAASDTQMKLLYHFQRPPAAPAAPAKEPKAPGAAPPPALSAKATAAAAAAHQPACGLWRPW

[1] = molecular target: T2, HES5wt (Dox-inducible in Hep3B cells) (human) (UniProt Q5TA89); assay: proximity ligation; PLA in Hep3B cells expressing HES5wt or HES5mut with or without induction by 2 µg/ml Dox; confocal imaging; PLA dots per cell counted
T2 sequence: T1 sequence

binding (HES5wt-FLAG (human)) | binding [1] | Substance
binds | – | AKT (enzyme)
– | binds | AKT (in Hep3B cells) (enzyme)

No constants are given. Whether binding was seen depends on the method and setting. Binding seen in cells or lysates may run through a third protein. A result given as binding can be weak or reduced; the word gives no strength. For some assays here: Tags and fused reporters may be left off the sequences shown.
